PubChem BioAssay AID602196 | INSERM – 2012
This is one part, drawn at random, of about 23,000 reagents tested. Over the whole deposit, 455 (2%) are marked active. 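Active includes both protection and sensitisation; some change values fall well beyond the stated -50 to +50 range.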 Entries without a mark were called inactive. Reagents against one gene are numbered here. The record does not give: the amount of reagent.

Assay: 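Modifiers of cisplatin sensitivity in A549 cells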
Cell system: human A549 lung cancer cells
Knock-down reagent: siRNA pair against human genes
Time to read-out: 48 h transfection before cisplatin; time from cisplatin to read-out not stated
Challenge: cisplatin at a dose killing half of control-siRNA cells; exact dose and duration not given
Measured: 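Cisplatin cell death as a shift from the 50% death seen with control siRNA; siRNAs toxic or growth-blocking alone scored 0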
Direction: two-siRNA summed score (-2 to +2): higher = both siRNAs protect from cisplatin killing; -2 means both sensitise; mean protection from cisplatin (shift in death) and protection from cisplatin (shift in death), siRNA C and protection from cisplatin (shift in death), siRNA D: higher = protection from cisplatin killing
Call rule: 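siRNAs harmful alone (LDH or WST-1) get 0; others get +1 for less and -1 for more cisplatin killing; genes are active when the two siRNAs give the same sign, summing to ±2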
Meaning of the calls: active = both siRNAs shift cisplatin killing the same way; inactive = no consistent shift, or siRNA harmful alone

gene | reagent | two-siRNA summed score (-2 to +2) | mean protection from cisplatin (shift in death) (%) | protection from cisplatin (shift in death), siRNA C (%) | protection from cisplatin (shift in death), siRNA D (%)
PROK1 | 1 | 1 | 14.9 | 8.7 | 21.1
BMP2K | 1 | 1 | 6.8 | 16.5 | -3
ORC3 | 1 | 0 | -0.5 | -14.8 | 13.9
TPX2 | 1 | -1 | -19.5 | 1.2 | -40.2
CLEC6A | 1 | 0 | 6.2 | 16.2 | -3.7
BANP | 1 | 1 | 10.2 | 13.6 | 6.7
LINC02153 | 1 | 0 | -1 | 3.1 | -5.1
GRIP1 | 1 | 0 | 0.7 | -5 | 6.4
GUSBP4 | 1 | 1 | 16.8 | 15.8 | 17.8
LOC440150 | 1 | 0 | 1.7 | 15.9 | -12.6
SPANXN2 | 1 | 0 | 3.8 | 5.5 | 2.2
PANX3 | 1 | 0 | 1.6 | 14.4 | -11.2
HOXD13 | 1 | -1 | -8.3 | 1.2 | -17.7
RNASE8 | 1 | 0 | 11.9 | 15.4 | 8.4
OR2G2 | 1 | 0 | 15.2 | 11.2 | 19.3
RGS11 | 1 | 0 | 2 | -2.1 | 6.2
RAB27A | 1 | 0 | 8.5 | 12.3 | 4.8
GIN1 | 1 | 0 | 11.9 | 7.1 | 16.8
LOC440587 | 1 | 0 | 24.7 | 18 | 31.3
ALDH1L1 | 1 | 0 | 6.3 | 1.5 | 11.1
PLA2G10 | 1 | -2 (active) | -30.4 | -27.4 | -33.3
NT5C1B | 1 | 0 | 0.7 | 2.9 | -1.5
ARID2 | 1 | 0 | 1.8 | 4.1 | -0.5
SERBP1 | 1 | 0 | -1.6 | 2.5 | -5.6
SERBP1 | 2 | 0 | 13.7 | 8.1 | 19.3
LINC02897 | 1 | 0 | -1.7 | -4.2 | 0.9
FLJ20972 | 1 | 0 | 3.1 | -3.7 | 9.9
LOC391800 | 1 | 1 | 19.8 | 15.1 | 24.5
LOC442374 | 1 | 1 | 14.6 | 7.7 | 21.6
RPS27A | 1 | 0 | 14.4 | 7.6 | 21.3
FAIM2 | 1 | 0 | -0.9 | -1.4 | -0.3
IL17RC | 1 | 0 | 3.7 | 9 | -1.6
COPG1 | 1 | 0 | -11.1 | -8.7 | -13.5
MAN2B1 | 1 | 0 | -6.8 | -14.4 | 0.8
BCL7C | 1 | 0 | 6.2 | 14.5 | -2
LINC00475 | 1 | 1 | 13.3 | 16.2 | 10.4
SUCLG1 | 1 | 1 | 13.5 | 26.8 | 0.3
PCDHA10 | 1 | 0 | -1.8 | 10.3 | -13.9
ASZ1 | 1 | 1 | 3.6 | 7.6 | -0.4
ATG5 | 1 | 0 | 2.3 | 8.7 | -4.2
LOC440552 | 1 | 0 | 8.1 | 11.1 | 5.1
TANK | 1 | 0 | 5.4 | 3.5 | 7.4
OR5AR1 | 1 | 1 | 13.3 | 13.1 | 13.5
LOC387754 | 1 | 1 | 9 | 5.2 | 12.8
LOC402694 | 1 | 0 | 2.1 | 12.4 | -8.3
NCAPG2 | 1 | 0 | 8.2 | -1.9 | 18.4
CAMKK2 | 1 | 1 | 4.7 | 12.6 | -3.3
H4C16 | 1 | 0 | 11.8 | 16 | 7.7
CAMKMT | 1 | 0 | 7.8 | 4.7 | 10.9
GLB1L | 1 | 0 | 8 | 12 | 4
FLJ46230 | 1 | 0 | -0.8 | -2.4 | 0.7
GYPC | 1 | 0 | -10.5 | -9.5 | -11.4
DPP4 | 1 | 0 | 4.9 | -3.8 | 13.6
LOC442703 | 1 | 0 | 6.6 | 11.5 | 1.7
NCAPH2 | 1 | 0 | 3.8 | 9.2 | -1.5
NUDT3 | 1 | 1 | 0 | 9.3 | -9.3
OR8U3 | 1 | 0 | 7.1 | 7 | 7.2
